In patent publication US20180369143A1, “METAL COMPLEXED THERAPEUTIC AGENTS AND LIPID-BASED NANOPARTICULATE FORMULATIONS THEREOF” (BRITISH COLUMBIA CANCER AGENCY BRANCH, priority 2015, published 2018):
At least one compound was matched to its structure with a doubt left.

Tested on: normal human bronchial epithelial cells HBEpC
Experiment: 72 h cytotoxicity, normal bronchial epithelial cells
Type: cell-based
Protocol: For studies with DDC, the cell lines U87, and A549 were obtained from ATCC, HBEpC (Human Bronchial Epithelial Cells) was obtained from Cell Applications (San Deigo, Calif.) and MDA-231-BR was from the NIH/NCI. The U251MG glioblastoma cell line (formerly known as U-373 MG) was originally obtained from American Type Culture Collection (Manassas, Va.) and was used for a maximum of fifteen passages. Subsequently, the U251MG was obtained from Sigma-Aldrich (product number 09063001). […] Both cell lines are now being maintained as separate lines U251MG^O (original line) and U251MG^SA (Sigma-Aldrich). U87, U251MG^O, A549 and MDA231-BR cells were maintained in DMEM (Gibco) supplemented with 2 mM L-glutamine (Gibco) and 10% fetal bovine serum (Gibco). HBEpC were grown in bronchial/tracheal epithelial growth medium obtained from Cell Applications and were used for a maximum of three passages. […] Twenty minutes later, the cells were imaged using an In Cell Analyzer 2200 and cell viability was measured based on viable nuclei count. For the suspension cell line MV-4-11, cells were incubated with the PrestoBlue reagent (Life Technologies) at 37° C. and 5% CO2 for 1 hour, after which cell viability was evaluated based on metabolic activity as measured with the FLUOstar OPTIMA microplate reader (BMG Labtech).

CCN(CC)C(=S)S [DDC, Diethyldithiocarbamate]
activity against normal cells: little activity
